# Results taken from PubChem BioAssay AID686934 (National Center for Advancing Translational Sciences (NCATS), 2013).
# The source calls these results inconclusive, neither active nor inactive. The call rests on the fitted dose curve; in most records, active means well fitted curve in the direction sought with a large enough effect; inconclusive means small, poorly fitted or top-dose-only effect, or another doubt; inactive means no such curve, though single readings can be large or run the other way. Potencies beside an inconclusive call are fits to weak or partial responses and may not hold up.
# Assay: qHTS screen for small molecules that inhibit ELG1-dependent DNA repair: SAR in Cell-Based Luciferin Counter Assay
# Conditions: purified firefly luciferase counter-screen, luminescence
# Excerpt: Cancer cells divide rapidly compared to normal cells in the body. During cell division, cancer cells need to duplicate their genome by DNA replication. The failure of genome duplication leads to cancer cells' death. Therefore, inhibitors of DNA replication could specifically kill cancer cells. Based on this concept, many chemotherapeutic agents were developed and have been used to treat cancer patients. However, there are a limited number of agents available in the clinical setting, and some of those that do exist have low efficacy and severe side effects. Therefore, if we can find the compounds that effectively block DNA replication either by directly damaging DNA or by inhibiting other cellular mechanisms, the options for cancer treatment will be broadened. With this in mind, we developed a quantitative high-throughput ELG1-luciferase reporter gene assay. Small molecules that specifically block ELG1 function in response to DNA damage can be identified by monitoring the suppression of luciferase activity. […]
# 3 uL of substrate reagent will be pipetted into each well in 1536-well white, solid-bottom plates using a FRD dispenser, followed by addition of 23 nL of DMSO or compounds by pintool. […] The plates will be read in a ViewLux CCD-based plate reader.
row,SMILES,Potency
1,COc1ccc(S(=O)(=O)Nc2cccc3cccnc23)c([N+](=O)[O-])c1,"inconclusive: 35.3 µM [inhibitor, single point]"
2,C(=C\c1nc2ccccc2s1)/c1ccc2c(c1)OCO2,"inconclusive: 19.9 µM [inhibitor, partial curve, poor fit]"
